# Measurements as given in paper doi:10.1101/2021.06.01.446555.
# Chains of the proteins cited; added tags and fusions are not shown.
# UniProt P0DTC3, whole entry: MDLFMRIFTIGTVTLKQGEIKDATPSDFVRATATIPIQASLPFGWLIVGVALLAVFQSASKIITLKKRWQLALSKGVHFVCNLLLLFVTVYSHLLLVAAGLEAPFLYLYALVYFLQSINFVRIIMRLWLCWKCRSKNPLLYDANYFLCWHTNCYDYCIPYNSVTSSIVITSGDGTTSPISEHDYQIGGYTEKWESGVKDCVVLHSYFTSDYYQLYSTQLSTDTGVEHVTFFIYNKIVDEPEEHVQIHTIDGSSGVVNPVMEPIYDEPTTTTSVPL
# B1: VPS16, Q9H269 1-839 (protein)
# chain: MDCYTANWNPLGDSAFYRKYELYSMDWDLKEELRDCLVAAAPYGGPIALLRNPWRKEKAASVRPVLDIYSASGMPLASLLWKSGPVVSLGWSAEEELLCVQEDGAVLVYGLHGDFRRHFSMGNEVLQNRVLDARIFHTEFGSGVAILTGAHRFTLSANVGDLKLRRMPEVPGLQSAPSCWTVLCQDRVAHILLAVGPDLYLLDHAACSAVTPPGLAPGVSSFLQMAVSFTYRHLALFTDTGYIWMGTASLKEKLCEFNCNIRAPPKQMVWCSRPRSKERAVVVAWERRLMVVGDAPESIQFVLDEDSYLVPELDGVRIFSRSTHEFLHEVPAASEEIFKIASMAPGALLLEAQKEYEKESQKADEYLREIQELGQLTQAVQQCIEAAGHEHQPDMQKSLLRAASFGKCFLDRFPPDSFVHMCQDLRVLNAVRDYHIGIPLTYSQYKQLTIQVLLDRLVLRRLYPLAIQICEYLRLPEVQGVSRILAHWACYKVQQKDVSDEDVARAINQKLGDTPGVSYSDIAARAYGCGRTELAIKLLEYEPRSGEQVPLLLKMKRSKLALSKAIESGDTDLVFTVLLHLKNELNRGDFFMTLRNQPMALSLYRQFCKHQELETLKDLYNQDDNHQELGSFHIRASYAAEERIEGRVAALQTAADAFYKAKNEFAAKATEDQMRLLRLQRRLEDELGGQFLDLSLHDTVTTLILGGHNKRAEQLARDFRIPDKRLWWLKLTALADLEDWEELEKFSKSKKSPIGYLPFVEICMKQHNKYEAKKYASRVGPEQKVKALLLVGDVAQAADVAIEHRNEAELSLVLSHCTGATDGATADKIQRARAQAQKK
# B2: BET1 (protein, UniProt O15155 1-118)
# chain: MRRAGLGEGVPPGNYGNYGYANSGYSACEEENERLTESLRSKVTAIKSLSIEIGHEVKTQNKLLAEMDSQFDSTTGFLGKTMGKLKILSRGSQTKLLCYMMLFSLFVFFIIYWIIKLR
# B3: CLCC1 (protein, UniProt Q96S66 19-551)
# chain: HDDDWIDPTDMLNYDAASGTMRKSQAKYGISGEKDVSPDLSCADEISECYHKLDSLTYKIDECEKKKREDYESQSNPVFRRYLNKILIEAGKLGLPDENKGDMHYDAEIILKRETLLEIQKFLNGEDWKPGALDDALSDILINFKFHDFETWKWRFEDSFGVDPYNVLMVLLCLLCIVVLVATELWTYVRWYTQLRRVLIISFLFSLGWNWMYLYKLAFAQHQAEVAKMEPLNNVCAKKMDWTGSIWEWFRSSWTYKDDPCQKYYELLLVNPIWLVPPTKALAVTFTTFVTEPLKHIGKGTGEFIKALMKEIPALLHLPVLIIMALAILSFCYGAGKSVHVLRHIGGPESEPPQALRPRDRRRQEEIDYRPDGGAGDADFHYRGQMGPTEQGPYAKTYEGRREILRERDVDLRFQTGNKSPEVLRAFDVPDAEAREHPTVVPSHKSPVLDTKPKETGGILGEGTPKESSTESSQSAKPVSGQDTSGNTEGSPAAEKAQLKSEAAGSPDQGSTYSPARGVAGPRGQDPVSSPCG
# B4: TMEM110 (protein, UniProt Q86TL2 1-294)
# chain: MQGPAGNASRGLPGGPPSTVASGAGRCESGALMHSFGIFLQGLLGVVAFSTLMLKRFREPKHERRPWRIWFLDTSKQAIGMLFIHFANVYLADLTEEDPCSLYLINFLLDATVGMLLIYVGVRAVSVLVEWQQWESLRFGEYGDPLQCGAWVGQCALYIVIMIFEKSVVFIVLLILQWKKVALLNPIENPDLKLAIVMLIVPFFVNALMFWVVDNFLMRKGKTKAKLEERGANQDSRNGSKVRYRRAASHEESESEILISADDEMEESDVEEDLRRLTPLKPVKKKKHRFGLPV
# B5: TMEM165 (protein, UniProt Q9HC07 34-324)
# chain: GPDEDLSHRNKEPPAPAQQLQPQPVAVQGPEPARVEKIFTPAAPVHTNKEDPATQTNLGFIHAFVAAISVIIVSELGDKTFFIAAIMAMRYNRLTVLAGAMLALGLMTCLSVLFGYATTVIPRVYTYYVSTVLFAIFGIRMLREGLKMSPDEGQEELEEVQAELKKKDEEFQRTKLLNGPGDVETGTSITVPQKKWLHFISPIFVQALTLTFLAEWGDRSQLTTIVLAAREDPYGVAVGGTVGHCLCTGLAVIGGRMIAQKISVRTVTIIGGIVFLAFAFSALFISPDSGF
# B6: VMA21 (protein, UniProt Q3ZAQ7 1-101)
# chain: MERPDKAALNALQPPEFRNESSLASTLKTLLFFTALMITVPIGLYFTTKSYIFEGALGMSNRDSYFYAAIVAVVAVHVVLALFVYVAWNEGSRQWREGKQD
# B7: USE1 (protein, UniProt Q9NZ43 1-259)
# chain: MAASRLELNLVRLLSRCEAMAAEKRDPDEWRLEKYVGALEDMLQALKVHASKPASEVINEYSWKVDFLKGMLQAEKLTSSSEKALANQFLAPGRVPTTARERVPATKTVHLQSRARYTSEMRSELLGTDSAEPEMDVRKRTGVAGSQPVSEKQLAAELDLVLQRHQNLQEKLAEEMLGLARSLKTNTLAAQSVIKKDNQTLSHSLKMADQNLEKLKTESERLEQHTQKSVNWLLWAMLIIVCFIFISMILFIRIMPKLK
# B8: JAM3 (protein, UniProt Q9BX67 32-310)
# chain: VNLKSSNRTPVVQEFESVELSCIITDSQTSDPRIEWKKIQDEQTTYVFFDNKIQGDLAGRAEILGKTSLKIWNVTRRDSALYRCEVVARNDRKEIDEIVIELTVQVKPVTPVCRVPKAVPVGKMATLHCQESEGHPRPHYSWYRNDVPLPTDSRANPRFRNSSFHLNSETGTLVFTAVHKDDSGQYYCIASNDAGSARCEEQEMEVYDLNIGGIIGGVLVVLAVLALITLGICCAYRRGYFINNKQDGESYKNPGKPDGVNYIRTDEEGDFRHKSSFVI
# B9: DHCR7 (protein, UniProt Q9UBM7 1-475)
# chain: MAAKSQPNIPKAKSLDGVTNDRTASQGQWGRAWEVDWFSLASVIFLLLFAPFIVYYFIMACDQYSCALTGPVVDIVTGHARLSDIWAKTPPITRKAAQLYTLWVTFQVLLYTSLPDFCHKFLPGYVGGIQEGAVTPAGVVNKYQINGLQAWLLTHLLWFANAHLLSWFSPTIIFDNWIPLLWCANILGYAVSTFAMVKGYFFPTSARDCKFTGNFFYNYMMGIEFNPRIGKWFDFKLFFNGRPGIVAWTLINLSFAAKQRELHSHVTNAMVLVNVLQAIYVIDFFWNETWYLKTIDICHDHFGWYLGWGDCVWLPYLYTLQGLYLVYHPVQLSTPHAVGVLLLGLVGYYIFRVANHQKDLFRRTDGRCLIWGRKPKVIECSYTSADGQRHHSKLLVSGFWGVARHFNYVGDLMGSLAYCLACGGGHLLPYFYIIYMAILLTHRCLRDEHRCASKYGRDWERYTAAVPYRLLPGIF
# B10: SCD5 (protein, UniProt Q86SK9 1-330)
# chain: MPGPATDAGKIPFCDAKEEIRAGLESSEGGGGPERPGARGQRQNIVWRNVVLMSLLHLGAVYSLVLIPKAKPLTLLWAYFCFLLAALGVTAGAHRLWSHRSYRAKLPLRIFLAVANSMAFQNDIFEWSRDHRAHHKYSETDADPHNARRGFFFSHIGWLFVRKHRDVIEKGRKLDVTDLLADPVVRIQRKYYKISVVLMCFVVPTLVPWYIWGESLWNSYFLASILRYTISLNISWLVNSAAHMYGNRPYDKHISPRQNPLVALGAIGEGFHNYHHTFPFDYSASEFGLNFNPTTWFIDFMCWLGLATDRKRATKPMIEARKARTGDSSA
# Biological target: ORF3a-linker-GFP (SARS-CoV-2 ORF3a tagged with GFP) (SARS-CoV-2), P0DTC3
# Test: proximity labelling
# Settings: remark: other sources report otherwise
row,Binder,binding
1,B1,binds

# Biological target: ORF3a-linker-GFP (SARS-CoV-2 ORF3a tagged with GFP) (SARS-CoV-2) (UniProt P0DTC3)
# Test: proximity labelling
# Settings: not given
row,Binder,binding
1,B2,binds
2,B3,binds
3,B4,binds
4,B5,binds
5,B6,binds
6,B7,binds
7,B8,binds
8,B9,binds
9,B10,binds

# Results are given in words; binding and its absence hold for the method and conditions named. In cells and extracts the contact can be indirect. These calls come from enrichment with a bait or labelling near it, and not all partners need be listed.
